Test results as given in paper PMC7672459, “Detection of genomic G-quadruplexes in living cells using a small artificial protein”.

Test system: nucleolin (NCL)
Test: EMSA
Details: 0.2 uM NCL, 20 nM DNA, complex then fixed; EMSA: 20 mM Tris-HCl pH 7.4, 75 mM KCl, 1 mM EDTA, 0.4 mg/ml BSA, 10 nM DNA, 4 C (or 37 C), 1 h; dsDNA with 30% PEG 200; recombinant protein; label: 5' FAM; folded or branched DNA

AGGGCGGTGTGGGAAGAGGGAAGAGGGGGAGG [KRAS]
binding result: binds

The exact form of at least one protein or probe is not confirmed. At least one verdict was read from the data and is not stated in words by the source.
